Reference: PubChem BioAssay (NCATS)
The shares of active, inactive and inconclusive entries below differ from those in the screen. Potencies of inconclusive entries are doubtful fits and often do not repeat. Activity calls are given as the source filed them. Calls come from the whole dose curve; as a rule, active = well fitted cell-killing curve with a large enough effect; inconclusive = small, poorly fitted or top-dose-only effect, or effect the other way; inactive = no such curve, though single readings can be large or run the other way.

test: Quantitative High-Throughput drug screen in 47 multiple myeloma cell lines against the NCATS MIPE library collection: XG6_PLB cell viability assay (AID 1919865); conditions: XG6 myeloma viability, CellTiter-Glo ATP luminescence, 48 h; viability (% of control): at 45.8 µM (top of the series); note: nearly all actives have a fitted effect of over 40% in size
From the text: PI: Beverly A. Mock Ph.D.
Laboratory of Cancer Biology and Genetics,
Center for Cancer Research, National Cancer Institute,
National Institute of Health, Bethesda, Maryland
Drug resistance and disease progression are common in multiple myeloma (MM) patients, underscoring the need for new therapeutic combinations. […] We hypothesized that effective combinations would reduce MYC expression and enhance p16 activity. […] These preclinical data identify potentially useful drug combinations for evaluation in drug-resistant MM and reveal potential mechanisms of combined drug sensitivity.
Described herein is the primary MIPE qHTS used to cherrypick compounds. Validated compounds were then further tested for potential synergistic activiy.
[1] Peat TJ, Gaikwad SM, Dubois W, Gyabaah-Kessie N, Zhang S, Gorjifard S, Phyo Z, Andres M, Hughitt VK, Simpson RM, Miller MA, Girvin AT, Taylor A, Williams D, D'Antonio N, Zhang Y, Rajagopalan A, Flietner E, Wilson K, Zhang X, Shinn P, Klumpp-Thomas C, McKnight C, Itkin Z, Chen L, Kazandijian D, Zhang J, Michalowski AM, Simmons JK, Keats J, Thomas CJ, Mock BA. Drug combinations identified by high-throughput screening promote cell cycle transition and upregulate Smad pathways in myeloma. Cancer Lett. 2023 Aug 1;568:216284. doi: 10.1016/j.canlet.2023.216284. Epub 2023 Jun 24. PMID: 37356470; PMCID: PMC10408729.
SEQUENCE No. (e.g., 1, 2, 3, etc.); […] (e.g., Cells, Incubation, Reagent, etc.); VALUE and DESCRIPTION.
1; Cells; 5 uL; white, solid bottom 1536-well Greiner assay plate.
2; Compounds; 23 nL; Kalypsis pin tool (Wako USA) equipped with a 1536-well pin head to transfer to the assay plates.
3; Incubation; 48 hours; 37C incubation.
4; Reagent;5uL; CellTiter Glo (Promega).
5; Detector; 425V; Luminescence; Viewlux PerkinElmer.
NOTES (numbers refer to Sequence numbers above)
1. The cell-based screening methods employed in this study were like those previously published. Briefly, the corresponding myeloma cell lines were screened in 1,536-well plates with 500 cells, 5-uL per well for inhibition of cell viability (assessed by measuring ATP levels with CellTiterGlo).
2. NCATS MIPE 4.0 library of approved and investigational drugs were added using the Kalypsis pin tool. Wells treated with DMSO only for 100% viability and media only for 0% viability were used as controls.
3. The assay plates were covered and incubated for 48 hours in a 37C, 5% CO2 incubator with controlled humidity.
4. After 48 hours, CellTilter-GloTM luminescent substrate mix (Promega) reagent was added to the assay plate and plates we incubated for 5 min at room temperature.
5. Signal was measured as median relative luminescence units on a ViewLux (PerkinElmer) multiplate reader.
[1] Heske CM, Davis MI, Baumgart JT, Wilson K, Gormally MV, Chen L, Zhang X, Ceribelli M, Duveau DY, Guha R, Ferrer M, Arnaldez FI, Ji J, Tran HL, Zhang Y, Mendoza A, Helman LJ, Thomas CJ. Matrix Screen Identifies Synergistic Combination of PARP Inhibitors and Nicotinamide Phosphoribosyltransferase (NAMPT) Inhibitors in Ewing Sarcoma. Clin Cancer Res. 2017 Dec 1;23(23):7301-7311. doi: 10.1158/1078-0432.CCR-17-1121. Epub 2017 Sep 12. PMID: 28899971; PMCID: PMC6636827.
Potency is the fitted concentration of half-maximal effect.

Structure (SMILES)	Potency	viability (% of control)
CN(C)CC=CC(=O)Nc1cc2c(Nc3ccc(F)c(Cl)c3)ncnc2cc1O[C@H]1CCOC1	active: 2.64 µM	–
O=C(CCCCCCC(=O)Nc1ccccc1)NO	inconclusive: 3.72 µM [cytotoxic, full curve]	–
CCN(CC)CCNC(=O)c1c(C)[nH]c(C=C2C(=O)Nc3ccc(F)cc32)c1C	active: 1.71 µM	–
NCCc1ccc(O)c(O)c1	inconclusive: 23.5 µM [cytotoxic, partial curve]	–
O=NN(CCCl)C(=O)NC1CCCCC1	inactive	–
C[C@@H](Oc1cc(-n2cnc3ccc(CN4CCN(C)CC4)cc32)sc1C(N)=O)c1ccccc1C(F)(F)F	inconclusive: 6.62 µM [cytotoxic, partial curve, poor fit]	–
CC[C@H](Nc1ncnc2nc[nH]c12)c1nc2cccc(F)c2c(=O)n1-c1ccccc1	active: 13.2 µM	–
c1cc(-c2cnn3cc(-c4ccc(OCCN5CCCCC5)cc4)cnc23)ccn1	active: 4.18 µM	–
COc1cc2ncn(-c3cc(OCc4ccccc4C(F)(F)F)c(C(N)=O)s3)c2cc1OC	active: 1.66 µM	–
CC(C)c1cc(C(C)C)c(CC(=O)NS(=O)(=O)Oc2c(C(C)C)cccc2C(C)C)c(C(C)C)c1	inconclusive: 37.2 µM [cytotoxic, single point]	–
CC(C)Cn1cnc2c(N)nc3ccccc3c21	inconclusive: 7.43 µM [cytotoxic, partial curve, poor fit]	–
NC(=O)N1c2ccccc2CC(=O)c2ccccc21	inactive	–
Cc1c(CCOc2ccc(C(=O)O)cc2)c2cc(Cl)ccc2n1C(c1ccccc1)c1ccccc1	inactive	–
CC(=O)NCC(=O)N1[C@H]2CC[C@H]1c1cc(Nc3ncc(C(F)(F)F)c(NC4CCC4)n3)ccc12	active: 1.18 µM	–
Cc1cnc(NC(=O)Nc2cc(Br)c(C)cc2OC[C@@H]2CNCCO2)cn1	active: 0.743 µM	–
CCN(CC)CCn1c(=O)c(Cc2ccc(OC)cc2)nc2ccccc21	inconclusive: 3.72 µM [cytotoxic, partial curve, poor fit]	–
CC(C)OC(=O)C1=CN(C(=O)c2ccc(F)c(F)c2)CC(C)(C)c2c1[nH]c1ccccc21	inactive	–
NC(=O)c1ccc(-c2nc(-c3ccc4c(c3)OCO4)c(-c3ccccn3)[nH]2)cc1	inactive	–
CCn1nnc2c(N3CCOCC3)nc(-c3ccc(NC(=O)Nc4ccc(C(=O)N5CCN(C)CC5)cc4)cc3)nc21	inconclusive: 0.0118 µM [cytotoxic, full curve]	–
Cc1ccccc1C(OCCN(C)C)c1ccccc1 (stereo not given)	inconclusive: 0.0033 µM [rising, full curve, poor fit]	–

Looked up above.
Value for CCN(CC)CCn1c(=O)c(Cc2ccc(OC)cc2)nc2ccccc21 under Potency: inconclusive: 3.72 µM [cytotoxic, partial curve, poor fit]
Value for NC(=O)N1c2ccccc2CC(=O)c2ccccc21 under Potency: inactive

Remaining list, next part.

Structure (SMILES)	Potency	viability (% of control)
C=CC(=O)Nc1ccc2ncnc(Nc3ccc(OCc4cccc(F)c4)c(Cl)c3)c2c1	active: 0.0148 µM	–
O=C(NCc1ccccc1)[C@H](Cc1ccccc1)NC(=O)[C@@H]1O[C@@H]1C(=O)NCCc1ccc(O)cc1	inconclusive: 16.6 µM [cytotoxic, single point]	–
N#Cc1ccc(COC[C@H]2O[C@@H](n3c(NCc4ccc(Cl)c(Cl)c4)nc4c(N)ncnc43)[C@@H](O)[C@@H]2O)cc1	active: 16.6 µM	–
CC(O)(C#Cc1ccc2c(c1)N(c1nc(N)ncc1Cl)CC2)c1nccs1 (stereo not given)	active: 4.18 µM	–
O=C(Cc1ccc(-c2ccc(OCCN3CCOCC3)cc2)cn1)NCc1ccccc1	–	inconclusive: 34% [cytotoxic]
O=C1NC(=O)[C@@H](c2cn3c4c(cccc24)CCC3)[C@H]1c1c[nH]c2ccccc12	inconclusive: 3.72 µM [cytotoxic, partial curve, poor fit]	–
C[C@](Cc1c[nH]c2ccccc12)(NC(=O)OC1C2CC3CC(C2)CC1C3)C(=O)NC[C@H](NC(=O)CCC(=O)O)c1ccccc1 (stereo not given in full)	inconclusive: 29.6 µM [cytotoxic, single point]	–
Cc1c(NC(=O)OC[C@@H]2COCCN2)cn2ncnc(Nc3ccc4c(cnn4Cc4cccc(F)c4)c3)c12	active: 0.0372 µM	–
COc1c(OCCCN2CCOCC2)ccc2c3n(c(=NC(=O)c4cnc(N)nc4)nc12)CCN3	inconclusive: 1.29 µM [cytotoxic, full curve]	–
COc1cc(C(C)C)c2c(c1)S(=O)(=O)N(COc1cc(=O)n3cccc(OCCN4CCCCC4)c3n1)C2=O	active: 0.833 µM	–
Cn1c(Nc2ccc(C(F)(F)F)cc2)nc2cc(Oc3ccnc(-c4ncc(C(F)(F)F)[nH]4)c3)ccc21	active: 5.9 µM	–
COc1ccc(F)c(F)c1C(=O)c1cnc(NC2CCN(S(C)(=O)=O)CC2)nc1N	active: 1.05 µM	–
CCCCOc1ccc(CC(=O)NO)cc1	inconclusive: 0.526 µM [cytotoxic, full curve, poor fit]	–
COc1ccc(COc2cc3oc(=O)c4cc(C(C)O)ccc4c3cc2OC)cc1 (stereo not given)	inconclusive: 16.6 µM [cytotoxic, partial curve]	–
CN(C)CC(C)(C)CNc1nn2c(-c3ccccc3)nnc2cc1C1CCC1	inconclusive: 1.05 µM [cytotoxic, full curve]	–
COc1cc(O)c2c(c1)C1OC1C[C@H](O)[C@H](O)C(=O)C=CC[C@H](C)OC2=O (stereo not given in full)	active: 4.69 µM	–
NC(=O)c1cccc2cn(-c3ccc([C@@H]4CCCNC4)cc3)nc12	inconclusive: 8.33 µM [cytotoxic, full curve]	–
CC(=O)NC(C)c1ccc(Oc2ccc(OC(C)C)cc2)cc1 (stereo not given)	inconclusive: 13.2 µM [cytotoxic, partial curve, poor fit]	–
Cn1c(=O)n(-c2ccc(C(C)(C)C#N)cc2)c2c3cc(-c4cnc5ccccc5c4)ccc3ncc21	inconclusive: 0.0166 µM [cytotoxic, full curve]	–
CS(=O)(=O)c1ccc(-c2cnc(N)c(C(=O)Nc3ccccc3)n2)cc1	inconclusive: 3.32 µM [cytotoxic, full curve]	–
